# Data reported in PMC11845855.
# By UniProt entry, the sequences of proteins in these tests, tags left out.
# UniProt D4A523: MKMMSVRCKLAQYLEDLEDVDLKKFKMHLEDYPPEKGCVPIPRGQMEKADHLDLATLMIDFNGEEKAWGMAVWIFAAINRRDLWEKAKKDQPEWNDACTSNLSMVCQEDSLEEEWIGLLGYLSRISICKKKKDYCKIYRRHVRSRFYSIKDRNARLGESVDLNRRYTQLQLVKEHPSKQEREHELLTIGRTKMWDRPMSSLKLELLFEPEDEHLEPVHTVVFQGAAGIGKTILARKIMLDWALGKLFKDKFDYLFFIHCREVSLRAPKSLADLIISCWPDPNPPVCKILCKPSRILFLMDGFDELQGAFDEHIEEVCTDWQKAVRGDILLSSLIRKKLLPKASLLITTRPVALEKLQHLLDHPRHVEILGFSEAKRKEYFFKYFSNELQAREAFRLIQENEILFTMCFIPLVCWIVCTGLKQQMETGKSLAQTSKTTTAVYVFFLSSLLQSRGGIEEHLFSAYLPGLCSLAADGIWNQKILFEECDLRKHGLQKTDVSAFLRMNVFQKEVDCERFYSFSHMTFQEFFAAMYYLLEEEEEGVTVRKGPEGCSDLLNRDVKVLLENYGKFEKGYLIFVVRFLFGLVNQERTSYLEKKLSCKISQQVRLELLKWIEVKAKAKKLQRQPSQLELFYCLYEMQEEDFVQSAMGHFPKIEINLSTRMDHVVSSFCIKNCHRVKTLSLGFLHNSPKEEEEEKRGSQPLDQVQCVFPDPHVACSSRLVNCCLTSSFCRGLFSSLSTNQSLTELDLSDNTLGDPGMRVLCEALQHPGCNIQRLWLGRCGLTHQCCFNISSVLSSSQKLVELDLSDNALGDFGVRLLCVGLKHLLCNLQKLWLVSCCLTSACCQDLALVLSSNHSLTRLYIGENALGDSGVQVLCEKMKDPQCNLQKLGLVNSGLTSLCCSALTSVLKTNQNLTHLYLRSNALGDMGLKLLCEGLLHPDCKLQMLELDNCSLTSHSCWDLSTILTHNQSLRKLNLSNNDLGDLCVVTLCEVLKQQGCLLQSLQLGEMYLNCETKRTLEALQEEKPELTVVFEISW
# UniProt Q6P9T8: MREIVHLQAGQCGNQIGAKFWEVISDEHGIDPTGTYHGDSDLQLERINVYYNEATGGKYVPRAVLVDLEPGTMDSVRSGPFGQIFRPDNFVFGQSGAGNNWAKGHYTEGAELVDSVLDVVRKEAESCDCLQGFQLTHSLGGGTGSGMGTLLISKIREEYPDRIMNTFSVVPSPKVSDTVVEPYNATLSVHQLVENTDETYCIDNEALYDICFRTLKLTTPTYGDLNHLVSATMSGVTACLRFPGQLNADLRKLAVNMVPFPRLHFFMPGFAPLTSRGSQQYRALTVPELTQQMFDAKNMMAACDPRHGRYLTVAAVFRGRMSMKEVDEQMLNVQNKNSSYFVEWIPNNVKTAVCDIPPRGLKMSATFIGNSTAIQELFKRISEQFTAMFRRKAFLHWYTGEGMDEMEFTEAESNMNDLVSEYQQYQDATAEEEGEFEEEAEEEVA
# Results are given in words; binding and its absence hold for the method and conditions named. Binding seen in cells or lysates may run through a third protein. A yes stands for co-enrichment or nearness to the bait. Other partners may have been found. Where a sequence is shown, tags or fusion partners need not be part of it.
# Molecular target: T1, Flag-USP25 (ubiquitin-specific protease 25), expressed in neonatal rat primary cardiomyocytes (UniProt P57080)
# T1 sequence: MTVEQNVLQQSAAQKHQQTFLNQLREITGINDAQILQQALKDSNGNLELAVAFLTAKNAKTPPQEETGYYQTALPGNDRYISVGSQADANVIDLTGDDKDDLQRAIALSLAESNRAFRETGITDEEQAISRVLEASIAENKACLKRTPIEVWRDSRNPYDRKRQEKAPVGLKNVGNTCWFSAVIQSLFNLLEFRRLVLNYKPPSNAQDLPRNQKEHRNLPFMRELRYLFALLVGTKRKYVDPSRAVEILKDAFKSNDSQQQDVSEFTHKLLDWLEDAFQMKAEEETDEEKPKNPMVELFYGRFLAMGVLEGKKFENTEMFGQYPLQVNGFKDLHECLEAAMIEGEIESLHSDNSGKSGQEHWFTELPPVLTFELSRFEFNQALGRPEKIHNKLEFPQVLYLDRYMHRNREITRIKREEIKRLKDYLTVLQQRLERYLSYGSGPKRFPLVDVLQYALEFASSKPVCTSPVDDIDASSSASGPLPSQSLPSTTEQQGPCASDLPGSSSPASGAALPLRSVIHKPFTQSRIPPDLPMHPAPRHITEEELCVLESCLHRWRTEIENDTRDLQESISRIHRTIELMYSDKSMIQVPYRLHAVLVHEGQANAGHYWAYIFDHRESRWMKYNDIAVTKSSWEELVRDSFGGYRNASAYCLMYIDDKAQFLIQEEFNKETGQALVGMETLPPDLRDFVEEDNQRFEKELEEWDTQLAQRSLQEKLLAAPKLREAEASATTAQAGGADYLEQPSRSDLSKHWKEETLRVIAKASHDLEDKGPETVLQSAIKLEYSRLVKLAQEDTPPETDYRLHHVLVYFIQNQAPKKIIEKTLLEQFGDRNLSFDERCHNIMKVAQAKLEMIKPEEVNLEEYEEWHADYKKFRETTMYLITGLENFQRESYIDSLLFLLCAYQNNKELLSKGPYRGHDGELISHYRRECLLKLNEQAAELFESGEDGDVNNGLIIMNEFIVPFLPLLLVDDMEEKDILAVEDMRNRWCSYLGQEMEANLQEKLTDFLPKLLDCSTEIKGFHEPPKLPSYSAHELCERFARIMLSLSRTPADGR
# Experiment: affinity purification with mass spectrometry; NRPCs transfected with Flag-USP25, H/R treatment; anti-Flag and protein G-Sepharose beads; bound proteins by LC-MS/MS; done twice
row,Substance,binding
1,"Ddx17, endogenous in neonatal rat primary cardiomyocytes",binds
2,"NLRP3 (NLR family pyrin domain-containing 3), endogenous in neonatal rat primary cardiomyocytes (from UniProt D4A523 1-1035)",binds
3,"Tubb4b, endogenous in neonatal rat primary cardiomyocytes (from UniProt Q6P9T8 1-445)",binds
